Publication PMC9834401

Amino acid sequences for entries named in this document (tags omitted).
UniProt P14635: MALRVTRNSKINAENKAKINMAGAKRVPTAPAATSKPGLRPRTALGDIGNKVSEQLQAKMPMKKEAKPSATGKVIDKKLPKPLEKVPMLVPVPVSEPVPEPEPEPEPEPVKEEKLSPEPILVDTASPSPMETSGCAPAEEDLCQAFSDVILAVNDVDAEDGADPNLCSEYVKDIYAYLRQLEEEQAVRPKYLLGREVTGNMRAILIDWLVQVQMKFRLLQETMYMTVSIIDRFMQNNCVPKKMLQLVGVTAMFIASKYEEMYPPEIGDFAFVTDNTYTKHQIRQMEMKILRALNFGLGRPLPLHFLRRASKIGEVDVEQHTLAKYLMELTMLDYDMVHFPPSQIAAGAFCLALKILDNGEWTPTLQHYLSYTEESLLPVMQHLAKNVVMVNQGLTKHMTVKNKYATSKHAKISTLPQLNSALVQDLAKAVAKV
UniProt P60228: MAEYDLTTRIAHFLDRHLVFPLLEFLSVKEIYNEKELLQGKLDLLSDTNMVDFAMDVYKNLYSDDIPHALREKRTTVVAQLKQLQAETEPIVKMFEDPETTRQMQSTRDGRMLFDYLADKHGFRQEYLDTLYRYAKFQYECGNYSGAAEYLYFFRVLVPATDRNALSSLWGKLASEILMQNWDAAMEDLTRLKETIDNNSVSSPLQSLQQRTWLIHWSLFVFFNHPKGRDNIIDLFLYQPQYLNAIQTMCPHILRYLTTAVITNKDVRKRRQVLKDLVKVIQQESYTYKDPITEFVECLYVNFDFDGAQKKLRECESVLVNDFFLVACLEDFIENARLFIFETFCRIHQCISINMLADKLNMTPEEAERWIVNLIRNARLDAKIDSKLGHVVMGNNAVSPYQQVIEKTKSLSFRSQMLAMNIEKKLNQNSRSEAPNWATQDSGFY
UniProt P53350: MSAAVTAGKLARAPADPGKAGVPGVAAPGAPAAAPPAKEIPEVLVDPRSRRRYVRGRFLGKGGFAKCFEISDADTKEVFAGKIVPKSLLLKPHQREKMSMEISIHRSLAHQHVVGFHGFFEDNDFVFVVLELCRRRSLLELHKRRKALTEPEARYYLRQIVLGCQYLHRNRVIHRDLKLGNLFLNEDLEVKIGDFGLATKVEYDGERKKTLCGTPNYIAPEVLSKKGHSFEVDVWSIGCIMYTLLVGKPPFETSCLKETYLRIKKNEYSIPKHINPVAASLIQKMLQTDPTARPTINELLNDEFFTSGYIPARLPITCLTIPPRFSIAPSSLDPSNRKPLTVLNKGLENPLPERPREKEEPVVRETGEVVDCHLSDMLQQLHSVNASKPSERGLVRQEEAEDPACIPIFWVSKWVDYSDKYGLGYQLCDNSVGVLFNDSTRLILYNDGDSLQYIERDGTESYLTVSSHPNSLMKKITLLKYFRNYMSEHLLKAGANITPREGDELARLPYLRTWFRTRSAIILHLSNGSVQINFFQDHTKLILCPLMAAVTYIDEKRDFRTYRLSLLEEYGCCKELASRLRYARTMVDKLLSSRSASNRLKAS
UniProt Q14980: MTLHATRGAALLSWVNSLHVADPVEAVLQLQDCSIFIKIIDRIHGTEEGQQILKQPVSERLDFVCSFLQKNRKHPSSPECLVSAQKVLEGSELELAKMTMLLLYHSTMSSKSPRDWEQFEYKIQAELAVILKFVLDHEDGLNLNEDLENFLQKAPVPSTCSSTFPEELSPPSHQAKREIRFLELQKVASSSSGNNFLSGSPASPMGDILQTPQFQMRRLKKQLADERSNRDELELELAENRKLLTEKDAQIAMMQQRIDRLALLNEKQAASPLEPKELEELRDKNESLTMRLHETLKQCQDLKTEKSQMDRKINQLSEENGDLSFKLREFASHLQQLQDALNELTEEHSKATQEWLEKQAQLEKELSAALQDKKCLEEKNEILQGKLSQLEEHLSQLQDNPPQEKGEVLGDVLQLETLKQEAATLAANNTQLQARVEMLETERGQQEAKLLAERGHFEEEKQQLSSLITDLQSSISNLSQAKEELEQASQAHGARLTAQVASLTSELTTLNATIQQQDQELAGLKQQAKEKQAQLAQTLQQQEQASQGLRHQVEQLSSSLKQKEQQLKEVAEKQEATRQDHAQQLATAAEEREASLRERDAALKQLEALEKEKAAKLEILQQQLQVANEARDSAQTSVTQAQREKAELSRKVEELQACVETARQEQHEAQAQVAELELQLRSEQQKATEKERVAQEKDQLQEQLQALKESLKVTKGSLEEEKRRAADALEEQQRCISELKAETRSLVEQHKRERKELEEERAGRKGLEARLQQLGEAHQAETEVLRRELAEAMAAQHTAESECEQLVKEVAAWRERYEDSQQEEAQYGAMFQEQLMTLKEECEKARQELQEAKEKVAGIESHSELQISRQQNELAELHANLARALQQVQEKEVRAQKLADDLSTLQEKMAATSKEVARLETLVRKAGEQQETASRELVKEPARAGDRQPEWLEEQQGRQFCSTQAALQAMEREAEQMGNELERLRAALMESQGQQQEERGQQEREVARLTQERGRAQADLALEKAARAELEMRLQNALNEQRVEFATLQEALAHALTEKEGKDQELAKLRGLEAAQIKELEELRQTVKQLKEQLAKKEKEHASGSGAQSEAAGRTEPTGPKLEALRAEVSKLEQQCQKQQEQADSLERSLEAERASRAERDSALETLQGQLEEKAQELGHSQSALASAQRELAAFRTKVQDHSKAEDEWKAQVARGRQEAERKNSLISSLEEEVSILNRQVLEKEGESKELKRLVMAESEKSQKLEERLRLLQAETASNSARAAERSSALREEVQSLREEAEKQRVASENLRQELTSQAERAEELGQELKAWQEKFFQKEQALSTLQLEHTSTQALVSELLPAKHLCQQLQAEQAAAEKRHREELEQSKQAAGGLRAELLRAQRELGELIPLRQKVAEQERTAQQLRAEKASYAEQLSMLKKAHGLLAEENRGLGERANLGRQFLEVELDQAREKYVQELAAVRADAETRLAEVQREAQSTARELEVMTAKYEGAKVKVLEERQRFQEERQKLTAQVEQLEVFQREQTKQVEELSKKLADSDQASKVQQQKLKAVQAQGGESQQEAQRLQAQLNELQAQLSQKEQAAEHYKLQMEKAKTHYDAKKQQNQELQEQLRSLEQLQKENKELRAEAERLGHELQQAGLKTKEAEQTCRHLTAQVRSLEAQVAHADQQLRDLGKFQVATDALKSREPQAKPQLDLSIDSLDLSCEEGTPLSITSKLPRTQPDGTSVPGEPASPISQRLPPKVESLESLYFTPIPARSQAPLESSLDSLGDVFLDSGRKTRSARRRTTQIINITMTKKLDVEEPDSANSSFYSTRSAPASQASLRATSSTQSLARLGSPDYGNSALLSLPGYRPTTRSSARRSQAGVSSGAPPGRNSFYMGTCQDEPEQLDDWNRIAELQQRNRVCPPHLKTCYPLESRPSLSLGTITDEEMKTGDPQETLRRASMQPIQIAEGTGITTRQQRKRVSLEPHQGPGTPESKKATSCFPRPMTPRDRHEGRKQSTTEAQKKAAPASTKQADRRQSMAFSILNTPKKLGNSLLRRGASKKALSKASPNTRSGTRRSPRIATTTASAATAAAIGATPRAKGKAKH
UniProt Q7Z460: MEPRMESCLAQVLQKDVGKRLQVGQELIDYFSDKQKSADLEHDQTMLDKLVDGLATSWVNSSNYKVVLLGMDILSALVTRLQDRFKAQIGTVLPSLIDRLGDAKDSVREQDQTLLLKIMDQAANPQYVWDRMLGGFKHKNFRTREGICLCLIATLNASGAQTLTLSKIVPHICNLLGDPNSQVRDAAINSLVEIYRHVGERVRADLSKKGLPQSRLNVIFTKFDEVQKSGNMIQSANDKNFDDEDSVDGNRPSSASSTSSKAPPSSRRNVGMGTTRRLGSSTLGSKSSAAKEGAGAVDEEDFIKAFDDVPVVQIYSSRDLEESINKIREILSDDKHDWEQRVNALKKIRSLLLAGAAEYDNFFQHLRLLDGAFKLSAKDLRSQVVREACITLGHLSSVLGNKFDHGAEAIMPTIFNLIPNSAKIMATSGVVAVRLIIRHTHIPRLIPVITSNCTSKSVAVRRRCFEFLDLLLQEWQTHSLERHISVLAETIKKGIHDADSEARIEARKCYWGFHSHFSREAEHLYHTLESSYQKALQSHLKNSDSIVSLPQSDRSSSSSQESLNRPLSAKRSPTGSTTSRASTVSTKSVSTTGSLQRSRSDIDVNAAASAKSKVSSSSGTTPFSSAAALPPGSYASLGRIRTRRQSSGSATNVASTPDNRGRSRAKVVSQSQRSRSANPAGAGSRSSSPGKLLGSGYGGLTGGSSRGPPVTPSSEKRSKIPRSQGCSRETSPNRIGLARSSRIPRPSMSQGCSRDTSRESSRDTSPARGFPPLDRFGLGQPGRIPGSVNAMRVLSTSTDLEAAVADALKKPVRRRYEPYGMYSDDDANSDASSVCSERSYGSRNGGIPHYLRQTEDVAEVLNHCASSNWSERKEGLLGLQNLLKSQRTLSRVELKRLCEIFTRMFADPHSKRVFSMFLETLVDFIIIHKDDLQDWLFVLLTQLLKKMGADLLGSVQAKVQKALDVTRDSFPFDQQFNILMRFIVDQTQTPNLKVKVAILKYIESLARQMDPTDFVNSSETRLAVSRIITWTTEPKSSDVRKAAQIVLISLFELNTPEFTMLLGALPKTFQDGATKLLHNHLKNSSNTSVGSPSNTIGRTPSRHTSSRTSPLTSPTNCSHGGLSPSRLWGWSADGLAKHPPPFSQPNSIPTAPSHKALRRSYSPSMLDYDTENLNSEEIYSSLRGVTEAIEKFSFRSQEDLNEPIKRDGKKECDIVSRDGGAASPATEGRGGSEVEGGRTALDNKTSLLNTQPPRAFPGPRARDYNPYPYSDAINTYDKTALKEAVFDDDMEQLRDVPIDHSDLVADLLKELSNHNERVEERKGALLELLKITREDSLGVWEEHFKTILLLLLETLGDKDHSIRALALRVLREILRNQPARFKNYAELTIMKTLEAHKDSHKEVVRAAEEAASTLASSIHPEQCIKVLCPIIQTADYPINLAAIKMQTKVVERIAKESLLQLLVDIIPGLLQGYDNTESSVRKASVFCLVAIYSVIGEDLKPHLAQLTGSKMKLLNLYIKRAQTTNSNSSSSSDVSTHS
UniProt P23258: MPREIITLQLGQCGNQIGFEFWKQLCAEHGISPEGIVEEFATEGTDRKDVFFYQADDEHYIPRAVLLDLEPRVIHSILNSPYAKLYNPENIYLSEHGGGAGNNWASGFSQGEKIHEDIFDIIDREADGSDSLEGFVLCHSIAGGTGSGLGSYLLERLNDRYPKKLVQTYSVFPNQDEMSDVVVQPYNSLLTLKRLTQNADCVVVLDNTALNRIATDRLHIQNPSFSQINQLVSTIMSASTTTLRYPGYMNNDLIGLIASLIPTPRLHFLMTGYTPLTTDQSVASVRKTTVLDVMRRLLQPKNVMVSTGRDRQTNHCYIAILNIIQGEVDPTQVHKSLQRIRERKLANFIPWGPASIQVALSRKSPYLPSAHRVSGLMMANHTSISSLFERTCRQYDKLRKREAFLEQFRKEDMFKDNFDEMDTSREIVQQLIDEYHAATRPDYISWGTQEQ

T1: GFP-LGN (UniProt P81274)
T1 sequence: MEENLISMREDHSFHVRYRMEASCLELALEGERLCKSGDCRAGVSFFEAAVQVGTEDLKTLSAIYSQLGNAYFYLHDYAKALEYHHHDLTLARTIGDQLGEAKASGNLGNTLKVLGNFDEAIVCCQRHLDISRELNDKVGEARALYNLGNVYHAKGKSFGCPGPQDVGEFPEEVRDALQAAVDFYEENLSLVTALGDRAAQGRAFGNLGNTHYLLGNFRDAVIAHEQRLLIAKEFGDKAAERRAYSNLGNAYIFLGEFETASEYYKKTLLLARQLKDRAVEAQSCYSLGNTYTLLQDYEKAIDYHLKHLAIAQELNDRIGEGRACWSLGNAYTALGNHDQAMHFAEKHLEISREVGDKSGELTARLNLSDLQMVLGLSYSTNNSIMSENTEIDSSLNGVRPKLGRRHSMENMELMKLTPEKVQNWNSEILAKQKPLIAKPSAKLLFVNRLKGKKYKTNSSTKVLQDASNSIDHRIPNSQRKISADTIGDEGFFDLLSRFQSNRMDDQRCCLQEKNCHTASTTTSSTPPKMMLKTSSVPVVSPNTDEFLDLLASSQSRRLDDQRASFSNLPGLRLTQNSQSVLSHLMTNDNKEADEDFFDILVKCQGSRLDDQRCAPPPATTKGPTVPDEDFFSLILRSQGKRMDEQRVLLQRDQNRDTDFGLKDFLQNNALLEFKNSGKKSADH

B1: S100A11 (S100 Ca^2+-binding protein A11) (protein, UniProt P31949 1-105)
chain: MAKISSPTETERCIESLIAVFQKYAGKDGYNYTLSKTEFLSFMNTELAAFTKNQKDPGVLDRMMKKLDTNSDGQLDFSEFLNLIGGLAMACHDSFLKAVPSQKRT
B2: Serum Amyloid A-1 protein (SAA1) (protein, UniProt P0DJI8 19-122)
chain: RSFFSFLGEAFDGARDMWRAYSDMREANYIGSDKYFHARGNYDAAKRGPGGAWAAEVITDARENIQRFFGHGAEDSLADQAANEWGRSGKDPNHFRPAGLPEKY
B3: INSC (protein, UniProt Q1MX18 1-579)
chain: MRRPPGNGEAASEGPGGWGLWGVQESRRLCCAGHDRCKQALLQIGINMMALPGGRHLDSVTLPGQRLHLMQVDSVQRWMEDLKLMTECECMCVLQAKPISLEEDAQGDLILAGGPGPGDPLQLLLKRGWVISTELRRIGQKLAQDRWARVHSMSVRLTCHARSMVSEYSAVSRNSLKEMGEIEKLLMEKCSELSAVTERCLQVENEHVLKSMKACVSETLSMLGQHFGQLLELALTREVQALVRKIDASDNIYTTESTTGNLFSLTQEGAPLCRIIAKEGGVVALFKVCRQDSFRCLYPQALRTLASICCVEEGVHQLEKVDGVLCLADILTDNSHSEATRAEAAAVVAQVTSPHLPVTQHLSSFLESMEEIVTALVKLCQEASSGEVFLLASAALANITFFDTMACEMLLQLNAIRVLLEACSDKQRVDTPYTRDQIVTILANMSVLEQCASDIIQENGVQLIMGMLSEKPRSGTPAEVAACERVQQKAAVTLARLSRDPDVAREAVRLSCMSRLIELCRSPSERNSSDAVLVACLAALRRLAGVCPEGLQDSDFQQLVQPRLVDSFLLCSNMEESFV
B4: Annexin A1 (ANXA1) (protein, UniProt P04083 1-346)
chain: MAMVSEFLKQAWFIENEEQEYVQTVKSSKGGPGSAVSPYPTFNPSSDVAALHKAIMVKGVDEATIIDILTKRNNAQRQQIKAAYLQETGKPLDETLKKALTGHLEEVVLALLKTPAQFDADELRAAMKGLGTDEDTLIEILASRTNKEIRDINRVYREELKRDLAKDITSDTSGDFRNALLSLAKGDRSEDFGVNEDLADSDARALYEAGERRKGTDVNVFNTILTTRSYPQLRRVFQKYTKYSKHDMNKVLDLELKGDIEKCLTAIVKCATSKPAFFAEKLHQAMKGVGTRHKALIRIMVSRSEIDMNDIKAFYQKMYGISLCQAILDETKGDYEKILVALCGGN
B5: HAUS6 (protein, UniProt Q7Z4H7 1-955)
chain: MSSASVTAFEKEHLWMYLQALGFEPGPATIACGKIVSHTHLGVNMFDKLNRDAFHIISYFLFQVLDQSLTKEVFKFCWPPFDQKSDTEFRKHCCEWIKRISGECGSSFPQVVGSLFLSPGGPKFIHLMYHFARFVAMKYIKSNSKNSSHHFVETFNIKPQDLHKCIARCHFARSRFLQILQRQDCVTQKYQENAQLSVKQVRNLRSECIGLENQIKKMEPYDDHSNMEEKIQKVRSLWASVNETLMFLEKEREVVSSVLSLVNQYALDGTNVAINIPRLLLDKIEKQMFQLHIGNVYEAGKLNLLTVIQLLNEVLKVMKYERCQADQARLTVDLHYLEKETKFQKERLSDLKHMRYRIKDDLTTIRHSVVEKQGEWHKKWKEFLGLSPFSLIKGWTPSVDLLPPMSPLSFDPASEEVYAKSILCQYPASLPDAHKQHNQENGCRGDSDTLGALHDLANSPASFLSQSVSSSDRNSVTVLEKDTKMGTPKEKNEAISKKIPEFEVENSPLSDVAKNTESSAFGGSLPAKKSDPFQKEQDHLVEEVARAVLSDSPQLSEGKEIKLEELIDSLGSNPFLTRNQIPRTPENLITEIRSSWRKAIEMEENRTKEPIQMDAEHREVLPESLPVLHNQREFSMADFLLETTVSDFGQSHLTEEKVISDCECVPQKHVLTSHIDEPPTQNQSDLLNKKVICKQDLECLAFTKLSETSRMETFSPAVGNRIDVMGGSEEEFMKILDHLEVSCNKPSTNKTMLWNSFQISSGISSKSFKDNDFGILHETLPEEVGHLSFNSSSSSEANFKLEPNSPMHGGTLLEDVVGGRQTTPESDFNLQALRSRYEALKKSLSKKREESYLSNSQTPERHKPELSPTPQNVQTDDTLNFLDTCDLHTEHIKPSLRTSIGERKRSLSPLIKFSPVEQRLRTTIACSLGELPNLKEEDILNKSLDAKEPPSDLTR
B6: NUMB (protein, UniProt P49757 1-651)
chain: MNKLRQSFRRKKDVYVPEASRPHQWQTDEEGVRTGKCSFPVKYLGHVEVDESRGMHICEDAVKRLKAERKFFKGFFGKTGKKAVKAVLWVSADGLRVVDEKTKDLIVDQTIEKVSFCAPDRNFDRAFSYICRDGTTRRWICHCFMAVKDTGERLSHAVGCAFAACLERKQKREKECGVTATFDASRTTFTREGSFRVTTATEQAEREEIMKQMQDAKKAETDKIVVGSSVAPGNTAPSPSSPTSPTSDATTSLEMNNPHAIPRRHAPIEQLARQGSFRGFPALSQKMSPFKRQLSLRINELPSTMQRKTDFPIKNAVPEVEGEAESISSLCSQITNAFSTPEDPFSSAPMTKPVTVVAPQSPTFQANGTDSAFHVLAKPAHTALAPVAMPVRETNPWAHAPDAANKEIAATCSGTEWGQSSGAASPGLFQAGHRRTPSEADRWLEEVSKSVRAQQPQASAAPLQPVLQPPPPTAISQPASPFQGNAFLTSQPVPVGVVPALQPAFVPAQSYPVANGMPYPAPNVPVVGITPSQMVANVFGTAGHPQAAHPHQSPSLVRQQTFPHYEASSATTSPFFKPPAQHLNGSAAFNGVDDGRLASADRHTEVPTGTCPVDPFEAQWAALENKSKQRTNPSPTNPFSSDLQKTFEIEL

These molecules were tested against T1, GFP-LGN (assay: affinity purification with mass spectrometry; GFP-Trap beads on lysates of MCF-10A cells stably expressing GFP-LGN, arrested in metaphase (RO-3306, then MG-132); mild lysis buffer (50 mM Tris pH 7.4, 150 mM NaCl, 0.5 mM EDTA, 0.5% NP40); on-bead tryptic digestion, LC-MS/MS; proteins in the GFP control and CRAPome contaminants removed).

| binding | Molecule |
| --- | --- |
| binds | Dynein (DYNC1H1) (from UniProt Q14204 1-4646) |
| binds | Cyclin B1 (CCNB1) (from UniProt P14635 1-433) |
| binds | EIF3E (from UniProt P60228 1-445) |
| binds | PAR3 (from UniProt Q8TEW0 1-1356) |
| binds | PLK1 (from UniProt P53350 1-603) (enzyme) |
| binds | nuclear mitotic apparatus protein (NuMA) (from UniProt Q14980 1-2115) |
| binds | CLASP1 (from UniProt Q7Z460 1-1538) |
| binds | γ-tubulin (TUBG1) (from UniProt P23258 1-451) |
| binds | B1 |
| binds | B2 |
| binds | B3 |
| binds | B4 |
| binds | B5 |
| binds | B6 |

Results are given in words; binding and its absence hold for the method and conditions named. In cells and extracts the contact can be indirect. These calls come from enrichment with a bait or labelling near it, and not all partners need be listed. Tags and fused reporters may be left off the sequences shown.
